In PubChem BioAssay AID504834 (National Center for Advancing Translational Sciences (NCATS), 2011):
About 22,000 (6.9%) of roughly 320,000 compounds were called active. The inconclusive results got no clear call from the source; some entries with a clear call stand among them for comparison. Calls come from the whole dose curve; as a rule, active = well fitted inhibition curve with a large enough effect; inconclusive = small, poorly fitted or top-dose-only effect, or another doubt; inactive = no such curve, though single readings can be large or run the other way. A potency beside an inconclusive call is a rough fit, not a confirmed value.

assay: Primary qHTS for delayed death inhibitors of the malarial parasite plastid, 96 hour incubation; conditions: P. falciparum luciferase reporter growth; series mostly up to 28.7 µM
Method in brief: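 Two parasite generations (96 h, 37 C, 5% CO2) of compound exposure in infected erythrocytes (0.05% parasitemia, 2% hematocrit). Luciferase-reporter P. falciparum; decreased luminescence indicates inhibited growth, aimed at apicoplast-acting delayed death.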
Potency is the fitted concentration of half-maximal effect.

| SMILES | Potency |
| --- | --- |
| CC(CN1CCCCC1)OC(=O)/C=C/c1ccccc1 (stereo unspecified) | inconclusive: 0.294 µM [inhibitor, full curve, poor fit] |
| CN1CCN(C(=O)c2ccc(Oc3ccc([N+](=O)[O-])cc3)cc2)CC1 | inconclusive: 18.5 µM [inhibitor, single point] |
| Cc1nc2n(n1)C(c1ccccc1)C1=C(CC(c3ccco3)CC1=O)N2 (stereo unspecified) | inconclusive: 0.0026 µM [inhibitor, full curve, poor fit] |
| CCOc1ccc(OCC)c(NC(=O)CSc2nnc(-c3cccnc3)o2)c1 | inconclusive: 10.4 µM [inhibitor, single point] |
| Cc1cc(N)n(-c2ccccn2)n1 | inactive |
| CC(C)COc1cccc(-c2cc(C(=O)Nc3ccon3)c3ccccc3n2)c1 | inactive |
| CCN(CC)CCNC(=O)c1ccc(NC(=O)Cc2cccc3ccccc23)cc1 | inconclusive: 14.7 µM [inhibitor, single point] |
| CCCCOc1ccc(C(=O)NCC(=O)N2CC(C)CC(C)C2)cc1 (stereo unspecified) | inconclusive: 9.28 µM [inhibitor, single point] |
| O=C(N/N=C/c1cccc(OC2CSC2)c1)c1ccccc1O | inactive |
| CCCNC(=O)CCCN1C(=O)c2ccccc2Sc2ncccc21 | inconclusive: 0.465 µM [inhibitor, partial curve, poor fit] |
| COc1ccccc1NC(=O)c1cnc2n(c1=O)CCS2 | inconclusive: 10.4 µM [inhibitor, partial curve] |
| O=C(NN1CC(=O)N(c2cc(Cl)cc(Cl)c2)CC1=O)c1sccc1Cl | inactive |
| COCCNC(=O)NC(=O)CN1CCN(C(c2ccccc2)c2ccccc2)CC1 | inconclusive: 11.7 µM [inhibitor, single point] |
| Cc1cc(C)nc(SCC(=O)Nc2ncc(Cc3cccc(Cl)c3)s2)n1 | inconclusive: 9.28 µM [inhibitor, partial curve] |
| CCc1n[nH]c(=S)n1/N=C/c1c(O)ccc2ccccc12 | inconclusive: 18.5 µM [inhibitor, single point] |
| CCCCCC(=O)c1c(C)[nH]c(C(=O)OCC)c1C | inconclusive: 18.5 µM [inhibitor, single point] |
| COc1ccc(NC(=O)CCCn2cnc3ccccc3c2=O)c(OC)c1 | inactive |
| C=C(C)C1(O)OC(=O)C=C1OC (stereo unspecified) | inconclusive: 1.65 µM [inhibitor, full curve] |
| Cn1c(-c2ccc(-c3ccccc3)cc2)c[nH]c1=S | inconclusive: 4.15 µM [inhibitor, full curve, poor fit] |
| O=C(c1ccccc1)N1CCCC(C(=O)N2CCc3ccccc3C2)C1 (stereo unspecified) | inconclusive: 11.7 µM [inhibitor, single point] |
| Cn1c(=O)n(Cc2ccccc2)c(=O)c2c1nc1n2CCCN1CCc1ccccc1 | active: 3.29 µM |
| CCC(=O)Nc1cc(C(=O)OC(C(=O)c2ccc(C)c(C)c2)c2ccccc2)ccc1C (stereo unspecified) | active: 1.65 µM |
| CCCOc1ccc(C(=O)Nc2ccc(N3CCN(C(=O)c4ccco4)CC3)cc2)cc1 | inconclusive: 1.31 µM [inhibitor, full curve, poor fit] |

Molecules from the list above containing an aryl thioether with sulfur outside any ring, in the order listed:

| SMILES | Potency |
| --- | --- |
| CCOc1ccc(OCC)c(NC(=O)CSc2nnc(-c3cccnc3)o2)c1 | inconclusive: 10.4 µM [inhibitor, single point] |
| Cc1cc(C)nc(SCC(=O)Nc2ncc(Cc3cccc(Cl)c3)s2)n1 | inconclusive: 9.28 µM [inhibitor, partial curve] |

Next part

| SMILES | Potency |
| --- | --- |
| CC1(C)SC2c3ccccc3C(=O)N2[C@@H]1C(=O)NCCCN1CCOCC1 (stereo partly specified) | inactive |
| CCSCCOC(=O)C1=C(C)NC(=O)NC1c1cc(OC)ccc1OC (stereo unspecified) | inactive |
| Cc1cc(C)cc(Oc2nc(-c3ccccc3)cc(C)c2S(C)(=O)=O)c1 | inconclusive: 16.5 µM [inhibitor, single point] |
| CC(C)CCC1(C)NC(=O)N(CC(=O)c2ccc[nH]2)C1=O (stereo unspecified) | inconclusive: 18.5 µM [inhibitor, single point] |
| COc1ccc(/C=C2/C(=O)NC(=O)N(c3ccc(C)c(C)c3)C2=O)cc1CN1C(=O)c2ccccc2C1=O | inconclusive: 16.5 µM [inhibitor, single point] |
| O=C(N=Nc1c(O)[nH]c2ccc([N+](=O)[O-])cc12)c1ccccc1[N+](=O)[O-] | inconclusive: 9.28 µM [inhibitor, single point] |
| COCCN(CCOC)S(=O)(=O)c1ccc(C(=O)Nc2sc3c(c2C(N)=O)CCCCC3)cc1 | inactive |
| O=C(COC(=O)C1=COCCO1)NC1CCCCCCC1 | inactive |
| O=C(CNc1cccc(S(=O)(=O)N2CCCC2)c1)Nc1cccc(F)c1 | active: 10.4 µM |
| O=C(CSc1nnc(CNC(=O)c2ccco2)o1)c1ccccc1 | active: 4.15 µM |
| O=C(O)COc1ccccc1/C=N/NC(=O)COc1ccc(-c2ccccc2)cc1 | inactive |
| C[n+]1c2cc(N)ccc2cc2ccc(N)cc21 | active: 0.0338 µM |
| CC1(C)C(=O)C=C[C@]2(C)[C@H]3CC[C@@]4(C)[C@H](c5ccoc5)OC(=O)[C@H]5O[C@]54[C@]3(C)[C@H](O)C[C@@H]12 | active: 8.28 µM |
| CC1CCCN(CCOc2ccc3ccccc3c2Br)C1 (stereo unspecified) | inconclusive: 18.5 µM [inhibitor, single point] |
| O=C1Cc2cc(S(=O)(=O)Nc3cccc(F)c3)ccc2N1 | inconclusive: 16.5 µM [inhibitor, single point] |
| O=C(c1cc(C(=O)NCCc2ccccc2)c(=O)n(CCc2ccccc2)c1)c1cc(Cl)ccc1O | active: 0.415 µM |
| CC(C)CCN1C(=O)c2ccc(C(=O)Nc3ccccc3C(=O)O)cc2C1=O | inactive |
| O=C(O)CCC(=O)Nc1ccccc1C(=O)NCCc1ccccc1 | inactive |
| CCCCOC(=O)Nc1nnc(Cc2ccc(Cl)cc2)s1 | inconclusive: 8.28 µM [inhibitor, partial curve, poor fit] |
| O=C(N/N=C/c1ccc(OC(=O)c2ccco2)cc1)c1ccccn1 | inconclusive: 0.0828 µM [inhibitor, full curve, poor fit] |
| COc1ccc(C(C#N)=C2C=CC(=NO)C=C2)cc1 | inconclusive: 14.7 µM [inhibitor, single point] |
| COc1ccc(C(=O)/C=C/C(=O)N(CC(=O)NC2CCCCC2)Cc2ccccc2OC)c(O)c1 | inconclusive: 9.28 µM [inhibitor, single point] |
| COc1ccc(CNC(=O)CCCNC(=O)c2ccc(Cl)cc2)cc1OC | inactive |
